# Assay results: paper PMC3568910, “P2X7 Receptor Activation Induces Reactive Oxygen Species Formation and Cell Death in Murine EOC13 Microglia” (Mediators of Inflammation, 2013)
# The chains behind the UniProt entries cited, without tags or fusion partners.
# UniProt Q9Z1M0, whole entry: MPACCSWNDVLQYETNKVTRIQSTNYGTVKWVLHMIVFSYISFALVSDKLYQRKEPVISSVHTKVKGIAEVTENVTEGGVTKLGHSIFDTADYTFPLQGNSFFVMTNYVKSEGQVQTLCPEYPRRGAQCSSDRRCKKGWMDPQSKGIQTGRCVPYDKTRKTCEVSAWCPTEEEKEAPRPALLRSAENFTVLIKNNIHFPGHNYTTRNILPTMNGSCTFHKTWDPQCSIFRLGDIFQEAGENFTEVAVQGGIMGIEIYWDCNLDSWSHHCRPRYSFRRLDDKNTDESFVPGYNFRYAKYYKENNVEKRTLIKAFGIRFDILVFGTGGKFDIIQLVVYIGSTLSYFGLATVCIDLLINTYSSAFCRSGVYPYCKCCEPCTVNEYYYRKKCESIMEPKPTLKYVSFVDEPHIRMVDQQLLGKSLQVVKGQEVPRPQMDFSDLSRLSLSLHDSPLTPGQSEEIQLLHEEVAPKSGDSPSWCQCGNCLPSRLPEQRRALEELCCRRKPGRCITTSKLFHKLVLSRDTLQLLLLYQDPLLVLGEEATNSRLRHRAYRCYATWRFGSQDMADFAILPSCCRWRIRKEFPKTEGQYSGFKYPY
# Certain results were filed several times, with different values. The list is limited to them. There may be further records. Values given together do not match, cause unknown; they may come from other doses, times, organisms or constructs than stated.
# Molecular target: P2X7 (Mus musculus, UniProt Q9Z1M0)
# Test: Fixed-time ethidium+ uptake assay (flow cytometry) in EOC13 microglial cells
# Type: cell-based, murine
# Details: antagonist 10 μM, 15 min preincubation, 1 mM ATP
structure (smiles),measurement,value
O=C(CC12CC3CC(CC(C3)C1)C2)Nc1cccc2nc(NCCNCCO)ccc12 [AZ10606120],impairment of ATP-induced ethidium+ uptake,100 ± 0% and completely impaired
